Results published in the supplement of paper PMC3334620.
In all, about 33,000 sequences were measured (“E-score (-0.5 to 0.5)”: median about -0.0014, highest 2% from about 0.25 on). The list shows a part of the results.

Target: T1, Cad1 (UniProt P24813)
T1 sequence: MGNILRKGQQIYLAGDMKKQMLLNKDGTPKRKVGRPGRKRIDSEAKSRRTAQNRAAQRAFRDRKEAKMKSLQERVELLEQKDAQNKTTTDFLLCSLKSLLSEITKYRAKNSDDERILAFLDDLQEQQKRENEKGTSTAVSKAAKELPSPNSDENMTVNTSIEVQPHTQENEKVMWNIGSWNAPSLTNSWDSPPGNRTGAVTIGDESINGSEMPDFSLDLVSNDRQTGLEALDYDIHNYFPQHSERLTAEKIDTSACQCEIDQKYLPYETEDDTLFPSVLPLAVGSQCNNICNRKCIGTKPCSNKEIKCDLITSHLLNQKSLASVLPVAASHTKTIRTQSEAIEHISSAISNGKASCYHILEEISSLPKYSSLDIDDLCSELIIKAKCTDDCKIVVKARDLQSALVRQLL
Assay: PBM E-score (8-mer binding enrichment) (E-score (-0.5 to 0.5)); higher = stronger / more preferred TF binding
Conditions: protein concentration: 100 nM; construct: GST-full length
How it was run: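 Detection of bound protein used fluorescent anti-GST, with scans normalised by masliner. The proteins were GST-tagged yeast transcription factors applied at about 100-200 nM to universal all-10-mer Agilent arrays made double-stranded by primer extension. Each ungapped eight-base word, pooled with its reverse complement, was scored with an E-score from the Universal PBM Analysis Suite.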

Sequence	PBM E-score
AATGCGCT	0.0389
ACGAATGG	0.0157
CAACGCTA	0.00025
CTTTGGGC	-0.224
CGCAACCA	0.0618
ATTCGGTA	0.185
GACTCATC	-0.00764
CAGGTGCC	-0.0801
ACGCACGG	0.0876
ACTGAGCA	-0.057
AAAGAAGT	0.171
CAACTTGA	0.223
ATGGGGGA	-0.385
GTCGATAA	-0.0981
AGATGGAC	0.0292
TAGGTGCA	-0.112
ACACAGCT	0.0403
CCAACAAA	-0.00011
TCATCACA	0.123
AACGAATT	0.149
GAAGATTA	0.181
AAACCTAA	0.0126
GAAGAACA	0.121
ACAGGAAG	-0.142
ATATAACC	-0.0304

Sequence	PBM E-score
GCCGCACA	-0.13
AAACCTAG	-0.0612
GCAGCCCA	-0.163
CCCTTTGA	-0.154
ATGCAAGG	-0.248
AGTTTGGA	0.08
AAAATATA	0.208
GCCAGGAC	-0.0142
GGAAGAAA	-0.0518
AAGAAGGG	-0.144
TAGGGACA	-0.0126
AAAGCAAA	0.16
CACCCATC	-0.0935
GACCGTGA	-0.0336
CTGTGGCC	-0.325
AGCTGTTC	-0.0751
AAACAGGT	-0.0926
CAATTAAG	0.0377
AGCTACCA	0.0307
GAGCCAAA	-0.131
TCAACTCA	0.0746
AATCAGGT	0.18
AATCTCCC	-0.277
AAGTTCAA	0.146
GATTTGCC	0.0432

5 consecutive records already listed, quoted:
Sequence	PBM E-score
CCAACAAA	-0.00011
TCATCACA	0.123
AACGAATT	0.149
GAAGATTA	0.181
AAACCTAA	0.0126

A few values from above:
GCCGCACA | PBM E-score: -0.13
ATGCAAGG | PBM E-score: -0.248

Carrying on:

Sequence	PBM E-score
CTATAAAG	-0.149
AAAGTTGG	-0.00742
AGCGTAAC	0.0717
GACGAGTC	-0.157
CCGTTACG	-0.0396
CTTTCCCA	-0.124
ACGCTCTA	-0.242
CGCTGCGA	0.14
TAATGATA	0.251
GGTGCCAC	-0.0568
AAAATGAT	0.234
AGCGCAAG	0.1
CTCCGTCA	0.00089
AGTGGGTC	-0.248
ACGTAACG	0.0481
CTAAGTAA	0.0983
AGGTTGCC	-0.143
AATCTGCT	0.0612
AGGCACCT	-0.2
CCTGGCCC	-0.0403
CTCAATCA	0.0838
AGCGTGCG	0.108
CCATATAA	-0.0968
GAAGAGAC	-0.0449
AACAGCTA	-0.0873

Sequence	PBM E-score
CACAACCC	-0.0563
AATACGAA	0.18
GTAGAAGA	-0.128
CATTTAGC	-0.143
CCGCCCTA	-0.00222
CACCGGGA	-0.192
AGTATACT	-0.0247
ATTAGAAA	0.173
CACATAAG	0.00562
GCAAAGGC	-0.222
GGAAGACC	-0.227
AACTGATT	-0.067
ACGCCGAT	0.132
AGCCAACT	-0.117
GAGCGTAA	0.0355
GCTTACCC	0.034
ATATTTCG	0.206
AAGTATGC	-0.0509
TCACTCAA	-0.00031
AAACGGGC	0.0994
ATGCCGTC	-0.0686
GCTTAATA	0.212
CATTCGAA	0.0318
ATGGTCTG	0.00029
GATGGGAC	0.00072

Sequence	PBM E-score
GATGTAAC	-0.0181
ATTCGTTG	0.258
AATTTGTC	0.31
ATGCTCTA	-0.182
TATAAGAA	0.0437
CGGGTGAG	-0.222
TCCGACAA	0.0363
CCTGCCAC	-0.0993
TCAAAACA	0.0475
CTTTTCGC	0.21
ACTAGATG	0.00154
CGGTGTCA	-0.106
GAATGAAA	0.138
CTTATAAG	-0.047
ACCCGCTG	-0.0566
CCCCGGCG	-0.272
AACGGGTG	-0.023
CTCCGACC	-0.157
AACACTCC	-0.0547
AAAGCTCC	-0.101
ATCCGCAA	-0.0492
CTCTTGCC	-0.062
AACGTAGA	0.0503
CAACTCCG	-0.113
AGCTAAGC	0.0297

Sequence	PBM E-score
ATCAATCG	0.136
AGGCACCC	-0.259
CCGGGCAC	-0.153
CAGCAACA	0.186
CGATGGTC	-0.108
CATAATGA	0.0454
GGGCCCGA	0.0194
ATTCGGAG	-0.0536
CCTTGTAG	-0.177
ATCGACTG	0.00902
TATTTACA	0.111
CTCCCCCC	-0.406
AGCTCTTC	-0.0278
GAAGTCAC	-0.175
CTCTCAAG	0.0798
ATTGTGCA	0.137
CGGGAGCC	-0.225
CCTGTCCG	-0.0194
ACCCAAAG	-0.0585
GTGTAGCA	-0.132
CCTGCTTC	-0.179
CATATGCA	0.0869
GGAAGGCC	-0.169
GTGCAAAC	-0.00691
TACGAAGA	-0.0587

Some of the entries so far, comma-delimited.
Sequence,PBM E-score
ATCAATCG,0.136
AGGCACCC,-0.259

Going on with the list.

Sequence	PBM E-score
AGCTTACT	0.239
CGTCAACA	-0.023
AGCTTAGA	0.135
AGGTGATA	-0.0762
CAAGAGTG	-0.0801
CACCCGGG	-0.116
CCAGAAAG	-0.0514
AAGGCAGC	-0.0388
ACATATTG	0.0269
CGTTCCAG	-0.189
TACAGAGA	-0.179
AATGCCCA	-0.154
CCAGAGAA	-0.0192
GCAACTGC	0.106
ACTTGGGG	-0.141
CAAAAAAC	0.12
GACAAACC	0.0702
ACAATAAG	0.0684
ATCTCGGC	-0.0453
GCCCATTA	-0.118
ACAGTTCC	0.125
AATGTACG	0.0769
AAGACAAT	-0.138
CCTTCTAC	-0.377
AGTATAGA	-0.0118

Sequence	PBM E-score
GTGCTTCA	0.122
CGCGGCCG	0.0945
ACGCCCCA	-0.0692
CTTCTTGC	0.129
CGGCGGAC	-0.0254
GGGAAGCA	-0.205
CGCCAGCC	-0.0239
ACACTGGC	-0.171
CCCCAGTA	-0.24
CAATTTAC	-0.053
GTCTTAAC	-0.0501
CCGGGAGA	-0.138
CCAAGAGC	-0.147
ATAGGCTC	-0.044
CCGAAACG	-0.0141
CGTAGTGC	-0.0508
GGAAGCCA	-0.224
CCGTGGTC	-0.13
CCGCACCA	0.0538
CCGAGCAA	0.0205
CAGATAGA	-0.0851
GATATGCC	0.0905
CGAGAACA	0.0277
GCTGTTTA	0.116
GATCCACA	0.00989

Sequence	PBM E-score
TGCCGGAA	0.09
AAATTCCG	0.174
CAGAATGC	-0.0645
CCTCTCCA	-0.335
AGCCGGTC	-0.014
GACGACTA	-0.0692
ACACTATC	0.115
TCACACCA	0.0935
CATAATTC	0.0611
ACGAGTCA	-0.129
AAATGTAC	0.129
CGTCTTCA	0.0593
ACGGGTGA	-0.125
GCCCACGC	-0.113
CGAAGAAA	0.115
TAAACTAA	0.186
AGTGATCC	-0.0446
AAAAAATC	0.0745
CAGTGATG	-0.00854
ACCTTCTC	-0.119
ACCTGCCG	-0.0997
GGGGGGAC	-0.488
CCGCTGAG	0.168
ACTTGGAC	0.0457
AGACATAG	0.0345

Sequence	PBM E-score
TCAATGAA	-0.0482
AGCGGCTA	0.0701
ATTGCGCC	-0.061
CAGTCAAG	-0.0975
GGATCCCA	-0.0273
GCACCTAC	-0.0844
TAGACCAA	0.053
AGAACACA	0.0837
AGGTTAGC	-0.248
CTATGTGA	-0.00217
CGAACATA	0.244
CCAGCCAA	0.0738
AGCTCACT	-0.0157
CTTAACGA	0.063
CGTGTTGA	0.0903
AGCTATCG	0.021
AGTTCGTG	0.102
CGTTGCTA	0.103
ACTACATG	0.0529
ATTTCATA	0.115
CGCGGCAA	0.124
CCTCGTAG	-0.125
GTACTTGA	-0.119
CAGTCGGC	-0.193
ACAAAGAG	-0.0509

Sequence	PBM E-score
ATCTACGG	0.0751
CGGATACG	0.146
GTCAGGCA	-0.0221
CCCTAGCC	-0.149
CTTTAGGC	-0.2
ACGTACAA	-0.129
CGTGGCAC	0.0211
CAGAGTCC	-0.0501
CCCAGCTC	-0.115
GAATCCTC	-0.228
CTCAACGA	-0.0873
ATGACGCA	0.0934
ATGGGAGG	-0.061
GCCCGGCA	-0.176
AAATGGCT	-0.029
ATTCAATG	0.114
AAGGTTAC	0.0461
GCTTTCCC	-0.0589
CTTGTACC	0.0286
TACAGCGA	-0.186
CGGGTGTA	-0.0514
AGCTCGTA	-0.0393
TGCATGCA	0.184
ATCGTCTC	0.0796
ACTACTAC	0.0727

Sequence	PBM E-score
ATGACCCC	-0.219
AGAAATGA	0.172
TACCAGAA	0.0721
CGTTCGAC	0.0224
ACCGACTC	-0.0642
TAAAATGA	0.232
CCAGTGGC	0.0328
CTATTACC	-0.0596
ACGGGTAC	-0.108
AAGTAGAG	-0.0745
GGGCTGAC	0.0304
AATAAGTG	0.0346
AGCTTCTA	-0.107
ACACATCT	-0.054
CCCACTAA	-0.031
AAGGTCGG	-0.192
ACCCACAA	0.17
GACTGACC	-0.248
TCCATTCA	0.0832
CAACTCGG	-0.067
AGAGCAGC	-0.158
CCGTCGGA	0.0224
AGTGCCAT	-0.134
GACCAATA	0.0156
GCACTAGC	-0.0944

Sequence	PBM E-score
CCGCCCTC	-0.196
GGCTGCTA	-0.164
CTAGCTGC	-0.218
CAAGTTTC	0.0233
ACCATGCT	-0.0622
AAAGGTGT	-0.0959
CAGGACTC	-0.117
CCCCAGAG	-0.245
ACCCACTC	-0.114
AATTGACT	0.165
CCTTATTA	0.211
AAGGCATT	-0.177
GACGACGC	-0.0628
CGTGTCAC	0.109
ATCGGCCA	-0.114
ACCAGCCA	-0.206
CACGTACC	0.044
ATACGTCA	0.00668
ATGTTCTA	-0.0863
AAACTTGC	0.114
ACCTCCCA	-0.257
AGCGGTCG	-0.208
AATTCATC	-0.0519
GTTCACCA	-0.067
GCGAAGAC	-0.143

Sequence	PBM E-score
CGTTCTTC	-0.0653
GAAAACCC	-0.0328
AGCCCCAG	-0.187
AATGAGCA	0.012
CCCCACCG	-0.32
GATATTGC	-0.0626
CGGGCATC	-0.267
GATAATAA	0.0805
CGGAAGTA	0.00016
CCGTAGAG	-0.186
CGCTAAAC	0.0788
CAGTAAGC	0.132
ATGCCCAG	-0.162
GCCGAAGC	-0.271
AGGTGCCG	0.0918
AATTTTAT	0.295
ACCAATGA	0.0394
CACCATTC	-0.173
AGGAGTAC	-0.141
